Results as given in the supplement of paper PMC12823440, “Inhibitors supercharge kinase turnover through native proteolytic circuits” (Nature, 2025).
The other results are listed elsewhere or left out. The calls rarely recur for the same compound in another form.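 Kinases, fused to nanoluciferase, were expressed in K562 cells; luminescence was measured every 4 h from 2 to 18 h as percent of control (DMSO = 100%, positive control = 0%). A time point is decreased if signal falls significantly (2 sigma). Hits were called by the authors by a rule that is not shown; the count of time points alone does not decide it.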

The chains behind the UniProt entries cited, without tags or fusion partners. Where a name states a change or a piece, a line headed by the entry shows the natural chain unless it says otherwise.
UniProt Q01974, whole entry: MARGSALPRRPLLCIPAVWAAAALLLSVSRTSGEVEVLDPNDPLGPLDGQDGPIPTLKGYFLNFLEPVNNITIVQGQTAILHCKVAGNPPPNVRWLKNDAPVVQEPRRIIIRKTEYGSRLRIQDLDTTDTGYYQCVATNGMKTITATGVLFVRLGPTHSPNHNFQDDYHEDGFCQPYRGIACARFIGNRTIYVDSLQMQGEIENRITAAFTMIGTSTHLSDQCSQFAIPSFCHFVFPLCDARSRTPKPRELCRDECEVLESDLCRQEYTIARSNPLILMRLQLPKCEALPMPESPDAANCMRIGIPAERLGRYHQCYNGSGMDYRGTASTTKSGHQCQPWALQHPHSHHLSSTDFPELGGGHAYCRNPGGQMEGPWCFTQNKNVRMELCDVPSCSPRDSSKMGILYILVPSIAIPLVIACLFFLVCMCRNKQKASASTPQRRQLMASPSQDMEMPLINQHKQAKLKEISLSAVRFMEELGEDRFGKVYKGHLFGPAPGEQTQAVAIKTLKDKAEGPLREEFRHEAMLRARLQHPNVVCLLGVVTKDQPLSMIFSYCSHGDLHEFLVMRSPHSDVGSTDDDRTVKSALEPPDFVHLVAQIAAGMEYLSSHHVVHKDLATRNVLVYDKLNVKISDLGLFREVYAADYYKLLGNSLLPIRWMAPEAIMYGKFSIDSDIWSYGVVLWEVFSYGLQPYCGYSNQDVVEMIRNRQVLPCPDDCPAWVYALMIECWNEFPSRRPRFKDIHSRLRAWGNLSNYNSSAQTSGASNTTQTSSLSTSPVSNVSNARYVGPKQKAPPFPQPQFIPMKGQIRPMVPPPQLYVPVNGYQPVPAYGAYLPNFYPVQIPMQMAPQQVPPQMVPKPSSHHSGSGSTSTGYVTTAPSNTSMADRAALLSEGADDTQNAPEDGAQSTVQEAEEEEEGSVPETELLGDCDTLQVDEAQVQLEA
UniProt Q15418, whole entry: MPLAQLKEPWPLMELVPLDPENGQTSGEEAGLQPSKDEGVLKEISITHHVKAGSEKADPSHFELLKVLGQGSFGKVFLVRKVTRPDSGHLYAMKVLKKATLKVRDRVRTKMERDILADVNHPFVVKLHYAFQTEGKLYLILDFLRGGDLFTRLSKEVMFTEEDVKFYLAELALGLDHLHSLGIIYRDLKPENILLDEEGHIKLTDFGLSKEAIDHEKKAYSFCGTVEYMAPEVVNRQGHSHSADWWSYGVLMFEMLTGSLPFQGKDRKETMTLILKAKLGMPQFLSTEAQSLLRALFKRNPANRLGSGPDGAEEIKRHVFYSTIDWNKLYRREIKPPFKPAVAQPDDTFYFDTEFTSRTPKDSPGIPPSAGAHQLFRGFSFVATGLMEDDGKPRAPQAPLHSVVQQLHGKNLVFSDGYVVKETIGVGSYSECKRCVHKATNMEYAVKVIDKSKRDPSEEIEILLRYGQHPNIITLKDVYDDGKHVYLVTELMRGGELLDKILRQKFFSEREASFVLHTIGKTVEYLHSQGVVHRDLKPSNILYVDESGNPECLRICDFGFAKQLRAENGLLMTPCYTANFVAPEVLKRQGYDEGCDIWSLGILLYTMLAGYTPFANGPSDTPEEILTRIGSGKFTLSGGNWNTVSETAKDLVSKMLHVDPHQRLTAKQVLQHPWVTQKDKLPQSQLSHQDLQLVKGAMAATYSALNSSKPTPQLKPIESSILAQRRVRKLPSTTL
UniProt Q9NYA1, whole entry: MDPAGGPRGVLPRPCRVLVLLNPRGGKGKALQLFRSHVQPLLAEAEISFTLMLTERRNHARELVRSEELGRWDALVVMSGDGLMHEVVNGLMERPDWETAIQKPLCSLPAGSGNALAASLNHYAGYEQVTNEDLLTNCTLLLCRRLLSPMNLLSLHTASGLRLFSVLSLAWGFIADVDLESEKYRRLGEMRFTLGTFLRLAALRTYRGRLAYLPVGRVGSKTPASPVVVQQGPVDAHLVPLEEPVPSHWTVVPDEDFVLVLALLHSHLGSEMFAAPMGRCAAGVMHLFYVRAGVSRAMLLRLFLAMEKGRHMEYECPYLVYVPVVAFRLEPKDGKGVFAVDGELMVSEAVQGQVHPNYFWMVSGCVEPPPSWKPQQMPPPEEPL
UniProt Q9Y6E0: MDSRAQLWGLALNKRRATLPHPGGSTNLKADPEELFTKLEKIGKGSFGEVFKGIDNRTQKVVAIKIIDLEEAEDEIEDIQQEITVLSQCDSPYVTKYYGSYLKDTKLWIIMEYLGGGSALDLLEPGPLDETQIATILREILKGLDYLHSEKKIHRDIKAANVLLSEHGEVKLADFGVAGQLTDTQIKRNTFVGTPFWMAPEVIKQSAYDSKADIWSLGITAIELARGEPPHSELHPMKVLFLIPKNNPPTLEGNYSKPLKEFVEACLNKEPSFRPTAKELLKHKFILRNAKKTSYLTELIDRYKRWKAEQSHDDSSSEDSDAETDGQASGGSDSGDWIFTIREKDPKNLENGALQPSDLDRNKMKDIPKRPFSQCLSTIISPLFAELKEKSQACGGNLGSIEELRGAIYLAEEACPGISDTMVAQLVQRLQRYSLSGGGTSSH
UniProt Q15208: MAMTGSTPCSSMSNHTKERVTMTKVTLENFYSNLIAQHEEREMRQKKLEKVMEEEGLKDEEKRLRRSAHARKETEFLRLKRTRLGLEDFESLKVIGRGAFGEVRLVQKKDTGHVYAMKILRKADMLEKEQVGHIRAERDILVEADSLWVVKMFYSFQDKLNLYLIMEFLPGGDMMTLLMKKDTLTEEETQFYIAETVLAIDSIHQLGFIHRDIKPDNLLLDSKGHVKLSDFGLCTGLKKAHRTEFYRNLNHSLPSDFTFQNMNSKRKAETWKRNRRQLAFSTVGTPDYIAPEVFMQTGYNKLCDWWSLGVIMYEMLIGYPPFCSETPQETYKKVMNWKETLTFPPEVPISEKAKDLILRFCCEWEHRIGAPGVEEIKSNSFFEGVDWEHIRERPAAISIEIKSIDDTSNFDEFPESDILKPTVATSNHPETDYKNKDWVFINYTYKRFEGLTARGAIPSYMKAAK
UniProt P42680: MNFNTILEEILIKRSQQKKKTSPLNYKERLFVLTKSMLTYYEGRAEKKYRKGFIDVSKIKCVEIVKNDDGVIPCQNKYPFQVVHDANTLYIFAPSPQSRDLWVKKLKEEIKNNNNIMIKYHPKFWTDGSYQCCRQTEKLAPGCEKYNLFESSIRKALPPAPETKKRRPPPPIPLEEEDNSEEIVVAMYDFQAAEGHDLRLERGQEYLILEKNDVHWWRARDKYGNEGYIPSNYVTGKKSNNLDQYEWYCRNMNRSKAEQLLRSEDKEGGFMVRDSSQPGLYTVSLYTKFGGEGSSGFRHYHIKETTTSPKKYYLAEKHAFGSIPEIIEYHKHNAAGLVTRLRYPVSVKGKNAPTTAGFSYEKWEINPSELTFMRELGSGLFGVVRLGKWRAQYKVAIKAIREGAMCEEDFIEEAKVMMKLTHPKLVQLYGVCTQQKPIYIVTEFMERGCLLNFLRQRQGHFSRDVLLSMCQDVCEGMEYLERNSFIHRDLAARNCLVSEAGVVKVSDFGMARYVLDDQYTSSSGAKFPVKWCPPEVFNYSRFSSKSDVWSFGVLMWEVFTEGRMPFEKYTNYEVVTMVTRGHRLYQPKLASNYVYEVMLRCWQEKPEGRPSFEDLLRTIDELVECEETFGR
UniProt P29597: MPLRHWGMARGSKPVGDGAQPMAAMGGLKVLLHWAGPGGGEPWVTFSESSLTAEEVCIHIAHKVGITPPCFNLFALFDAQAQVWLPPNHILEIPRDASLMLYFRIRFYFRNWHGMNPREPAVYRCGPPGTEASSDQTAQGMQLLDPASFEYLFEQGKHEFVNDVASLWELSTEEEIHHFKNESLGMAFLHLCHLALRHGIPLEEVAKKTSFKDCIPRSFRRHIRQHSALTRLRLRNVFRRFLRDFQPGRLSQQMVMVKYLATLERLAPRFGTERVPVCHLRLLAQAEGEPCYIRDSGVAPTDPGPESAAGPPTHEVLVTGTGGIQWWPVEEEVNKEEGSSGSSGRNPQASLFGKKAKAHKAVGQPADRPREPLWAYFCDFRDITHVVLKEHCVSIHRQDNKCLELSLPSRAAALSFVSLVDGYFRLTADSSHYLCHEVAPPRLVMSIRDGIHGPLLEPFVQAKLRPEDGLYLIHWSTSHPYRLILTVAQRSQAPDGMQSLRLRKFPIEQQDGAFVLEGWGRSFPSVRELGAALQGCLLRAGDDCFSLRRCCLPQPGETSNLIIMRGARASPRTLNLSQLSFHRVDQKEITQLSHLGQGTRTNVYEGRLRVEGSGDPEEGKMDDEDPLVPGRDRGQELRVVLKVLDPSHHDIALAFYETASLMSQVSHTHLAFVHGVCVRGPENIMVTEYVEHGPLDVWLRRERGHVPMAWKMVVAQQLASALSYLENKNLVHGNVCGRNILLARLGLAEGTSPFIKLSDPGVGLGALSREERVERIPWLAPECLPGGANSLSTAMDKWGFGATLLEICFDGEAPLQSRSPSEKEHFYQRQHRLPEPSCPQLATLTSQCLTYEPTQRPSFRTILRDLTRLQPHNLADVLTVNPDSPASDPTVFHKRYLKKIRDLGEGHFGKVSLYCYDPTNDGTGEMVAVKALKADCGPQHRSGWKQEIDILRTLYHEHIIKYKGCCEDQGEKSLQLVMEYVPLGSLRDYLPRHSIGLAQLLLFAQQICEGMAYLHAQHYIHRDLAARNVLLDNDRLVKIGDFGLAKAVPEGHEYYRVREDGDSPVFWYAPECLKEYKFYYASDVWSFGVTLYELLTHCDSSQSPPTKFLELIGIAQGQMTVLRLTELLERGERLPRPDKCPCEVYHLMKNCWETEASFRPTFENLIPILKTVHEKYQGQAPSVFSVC
UniProt Q6PHR2: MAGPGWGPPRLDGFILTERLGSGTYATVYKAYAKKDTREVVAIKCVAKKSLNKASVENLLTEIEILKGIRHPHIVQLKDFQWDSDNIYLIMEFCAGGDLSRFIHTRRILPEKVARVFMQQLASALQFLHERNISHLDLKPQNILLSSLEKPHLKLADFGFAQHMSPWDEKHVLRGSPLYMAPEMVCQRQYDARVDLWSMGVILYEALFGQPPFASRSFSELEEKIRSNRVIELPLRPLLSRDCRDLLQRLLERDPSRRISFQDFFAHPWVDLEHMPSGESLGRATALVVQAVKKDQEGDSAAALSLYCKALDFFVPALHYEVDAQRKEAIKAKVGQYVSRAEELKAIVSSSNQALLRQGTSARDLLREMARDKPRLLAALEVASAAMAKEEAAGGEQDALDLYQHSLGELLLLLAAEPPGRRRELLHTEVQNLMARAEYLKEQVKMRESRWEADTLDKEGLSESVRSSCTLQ

How the values were obtained:
Assay in all cases: number of time points (of 5) at which kinase-Nluc abundance scored as decreased, DMSO-normalised (count); higher = more persistent destabilization
Settings in all cases: K562; 2-18 h
ROR2 = ROR2 (UniProt Q01974)
RPS6KA1 = RPS6KA1 (UniProt Q15418)
SPHK1 = SPHK1 (UniProt Q9NYA1)
SRC = SRC (UniProt P12931)
STK24 = STK24 (UniProt Q9Y6E0)
STK38 = STK38 (UniProt Q15208)
SYK = SYK (UniProt P43405)
TEC = TEC (UniProt P42680)
TYK2 = TYK2 (UniProt P29597)
ULK3 = ULK3 (UniProt Q6PHR2)

Compound | number of time points (ROR2) | number of time points (RPS6KA1) | number of time points (SPHK1) | number of time points (SRC) | number of time points (STK24) | number of time points (STK38) | number of time points (SYK) | number of time points (TEC) | number of time points (TYK2) | number of time points (ULK3)
O=C(c1ccc(NS(=O)(=O)c2cccc3cccnc23)cc1)N1CCN(CC2CC2)CC1 [Mitapivat] (10 µM) | 0 | 0 | 0 | 0 | 0 | 0 | 0 | 0 | 0 | 0
N#C/C(=C\c1ccc[nH]1)c1ccc(Cl)c(Cl)c1 (2.5 µM) | 0 | 0 | 0 | 0 | 0 | 0 | 0 | 0 | 0 | 0
CCOc1cc(C(=O)N2CCC(N3CCN(C)CC3)CC2)ccc1Nc1ncc2c(n1)N(S(C)(=O)=O)c1ccccc1C(=O)N2C (10 µM) | 0 | 0 | 0 | 0 | 0 | 0 | 0 | 0 | 0 | 0
Cc1cc(/C=C2\CC/C(=C\c3cc(C)c(O)c(C)c3)C2=O)cc(C)c1O [Pentagamavunon-1] (2.5 µM) | 0 | 0 | 0 | 0 | 0 | 0 | 0 | 0 | 0 | 0
CC(C)[C@H](CO)Nc1nc(Nc2ccc(C(=O)O)c(Cl)c2)c2ncn(C(C)C)c2n1 [Purvalanol B] (10 µM) | 0 | 0 | 0 | 0 | 0 | 0 | 0 | 0 | 0 | 0
Cc1cc(=O)[nH]c(=S)[nH]1 [Methylthiouracil] (10 µM) | 0 | 0 | 0 | 0 | 0 | 0 | 0 | 0 | 0 | 0
COc1ccc(-c2cnc3c(-c4cccc5ncccc45)cnn3c2)cc1 (10 µM) | 0 | 0 | 0 | 0 | 0 | 0 | 0 | 0 | 0 | 0
COc1cc(OC)c(/C=C/S(=O)(=O)Cc2ccc(OC)c(NCC(=O)O)c2)c(OC)c1 [Rigosertib (sodium)] (10 µM) | 0 | 0 | 0 | 0 | 0 | 0 | 0 | 1 | 0 | 0
CCn1c(-c2nonc2N)nc2c(C#CCO)ncc(OCCCN)c21 [AKT Kinase Inhibitor] (10 µM) | 0 | 0 | 0 | 0 | 0 | 0 | 0 | 0 | 0 | 0
CC(C)(O)c1cc2nc(-c3cnc(N)nc3)nc(N3CCOCC3)c2s1 (2.5 µM) | 0 | 0 | 0 | 0 | 0 | 0 | 0 | 0 | 4 | 0
O=c1[nH]nc(Sc2ncc([N+](=O)[O-])s2)n1-c1ccc2c(c1)OCCO2 (2.5 µM) | 0 | 0 | 0 | 0 | 0 | 0 | 0 | 0 | 0 | 0
Cc1ncc(F)c(Nc2n[nH]c3c2CN(C(=O)N2C[C@@H](C)N(CC4CCOCC4)C[C@@H]2C)C3(C)C)n1 (10 µM) | 0 | 0 | 0 | 0 | 0 | 0 | 0 | 0 | 0 | 0
O=c1ccc2cc(O)c(O)cc2o1 [Esculetin] (10 µM) | 0 | 0 | 0 | 0 | 0 | 0 | 0 | 0 | 0 | 0
COC(=O)/C=C/c1ccc(O)c(OC)c1 [Ferulic acid methyl ester] (10 µM) | 0 | 0 | 0 | 0 | 0 | 0 | 0 | 0 | 0 | 0
C=CC(=O)Nc1cccc(Oc2nc(Nc3ccc(N4CCN(C)CC4)cc3)ncc2Cl)c1 (2.5 µM) | 0 | 0 | 0 | 0 | 0 | 0 | 0 | 0 | 0 | 0
C=C[C@H]1[C@H](O[C@@H]2O[C@H](CO)[C@@H](O)[C@H](O)[C@H]2O)OC=C(C(=O)OC)[C@H]1CCOC(=O)c1cc(O)c(O)c(O)c1 [Cornuside] (10 µM) | 0 | 0 | 0 | 0 | 0 | 0 | 0 | 0 | 0 | 0

3 structures out of the list, ordered by length of the SMILES, rising.
Compound | number of time points (ROR2) | number of time points (RPS6KA1) | number of time points (SPHK1) | number of time points (SRC) | number of time points (STK24) | number of time points (STK38) | number of time points (SYK) | number of time points (TEC) | number of time points (TYK2) | number of time points (ULK3)
COC(=O)/C=C/c1ccc(O)c(OC)c1 [Ferulic acid methyl ester] (10 µM) | 0 | 0 | 0 | 0 | 0 | 0 | 0 | 0 | 0 | 0
N#C/C(=C\c1ccc[nH]1)c1ccc(Cl)c(Cl)c1 (2.5 µM) | 0 | 0 | 0 | 0 | 0 | 0 | 0 | 0 | 0 | 0
O=c1[nH]nc(Sc2ncc([N+](=O)[O-])s2)n1-c1ccc2c(c1)OCCO2 (2.5 µM) | 0 | 0 | 0 | 0 | 0 | 0 | 0 | 0 | 0 | 0
